For orientation: AC50 means the midpoint of the concentration-response curve, whichever way the signal moves. A higher AC50 goes with activity only at high concentration.

32 compounds from PubChem BioAssay AID2685 (National Center for Advancing Translational Sciences (NCATS), 2010) can be followed below.

The structures appear in SMILES notation. Some of the results follow. The main result of the screen is listed elsewhere. These columns were measured beside it and carry no call. Compounds called inactive in the main read-out are mostly missing here. The note in brackets gives the kind of curve behind each potency; many fits are weak.

A short description of the assay: qHTS Assay for Lipid Storage Modulators in Drosophila S3 Cells.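 As to cell number change: cells counted by Cell Tracker Red CMTPX staining in the red channel.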 To be noted: BODIPY lipid droplet fluorescence, 18-24 h; for cell number change: measured here: cell count max response, cells fed with added oleic acid. An excerpt:
NIH Molecular Libraries Probe Production Centers Network [MLPCN] NIH Chemical Genomics Center [NCGC] MLPCN Grant: 1 R03 MH085686-01 Assay Submitter (PI): Beller, Mathias; Max-Planck-Institut fur Biophysikalische Chemie NCGC Assay Overview: Storing lipids as a reservoir for energy or the anabolism of elementary metabolites is a common feature of probably all cells and is conserved from bacteria to humans. The universal cellular lipid storage organelle is the so-called lipid storage droplet (LD). Although ubiquitous, LDs share a simple structure composed of a hydrophobic core that harbors the storage lipids, which is shielded by a droplet-specific phospholipid monolayer to which proteins are attached. The current model of LD biogenesis involves an incorporation of the lipid core into the membrane leaflets of the endoplasmic reticulum (ER) followed by a subsequent budding-like maturation of a LD, which ultimately pinches off. Once released, LD volume can increase by localized lipogenesis or fusion of existing droplet. Storage lipids are re-mobilized enzymatically by lipase activity. Lipase regulation in the adipocyte is heavily studied and involves multiple components including catecholamine signaling, the LD-associated proteins Perilipin and comparative gene identification (CGI-58) and at least two lipases named hormone sensitive lipase (HSL) and adipocyte triglyceride lipase (ATGL). LD regulation outside of the adipocyte is poorly understood and only few components are known. However, there is an urgent need to learn more about ectopic fat depots as mislocalized storage of lipids, for example in the liver or muscle, is an eminent health problem associated with insulin resistance or the metabolic syndrome. We developed a laser-scanning cytometer assay to enable 1,536-well screening and combined the results of the small molecules screen with an RNAi database based on lipid storage.
Triacsin C (Sigma-Aldrich T-4540), an inhibitor of long-chain fatty acyl CoA synthetase that blocks synthesis of triglycerides, was used as a positive control for lipid under-storage. A total of 23 nL of compound solution of different concentrations were transferred to the assay plates using a Kalypsys pin tool equipped with a 1,536-pin array containing 10-nL slotted pins (FP1S10, 0.457-mm diameter, 50.8 mm long; V&P Scientific). One microliter of oleic acid (400 uM) was added, and the plate was lidded with stainless steel rubber gasket lined lids containing pinholes. […] Fluorescence was detected by excitation of the fluorophores with a 488-nm laser on an Acumen Explorer (TTP Lab Tech). The total intensity in channel 2 (500-530 nm) reflected lipid droplet accumulation. Cells were detected using channel 3 (575-640 nm) with 5-um width and 100-um depth filters. The ratio of the number of objects in PMT channel 2 over the number of objects in PMT channel 3 was also calculated. Percent activity was computed relative to an internal control (100% inhibited lipid droplet deposition due to the presence of 20 uM Triacsin C), which was added to 32 wells/plate.
A general note: Quantitative high-throughput screening tests each substance at several concentrations.

Where [1] appears, read: measured here: cell number channel AC50, cells fed with added oleic acid.
Setting [2] is: measured here: lipid fluorescence (Fed channel) AC50, cells fed with added oleic acid.

Take `COc1ccccc1-c1ccc(SCC(=O)NC2CCCC2)nn1`: the cell number change was 54.4%. In addition, the AC50 under setting [1] was 29.1 µM [rising, single point].
Regarding `Cc1ccnc(NC(=O)CCC(=O)N(CC(=O)NCC2CCCO2)Cc2ccc(F)cc2)c1` (stereo not drawn), the cell number change was 6.47%.
Turning to `CCCOc1ccccc1Nc1nnc(C)c(=O)[nH]1`, the cell number change is -10.9%. Further, the AC50 under setting [1] is 0.103 µM [falling, full curve, poor fit].
Consider `COC(C(=O)NNS(=O)(=O)c1ccccc1[N+](=O)[O-])c1ccccc1` (stereo not drawn), for which the cell number change is -13.5%. For the same compound, the half-maximal activity concentration (AC50) under setting [2] is 29.1 µM [rising, single point].
`COc1ccc(CN2CCN(c3ccccn3)CC2)cc1OCc1ccccc1`: the cell number change was -7.67%.
The same measure, in the same setting: as for `COc1ccc(-c2cccc(NS(=O)(=O)c3cc([N+](=O)[O-])ccc3Cl)c2)nn1`, the figure is 27.3%.
Consider `COc1ccc(-c2cc(C(=O)Nc3cc(OC)c(OC)c(OC)c3)no2)cc1OC`, for which the cell number change came to 31.6%. Under setting [1], the AC50 was 4.11 µM [rising, partial curve]. Also, under setting [2], the AC50 was 16.4 µM [rising, single point].
With `OC(CN1CCNCC1)Cn1c2ccccc2c2ccccc21` (stereo not drawn), the cell number change was -14.9%.
`Cc1ccc(S(=O)(=O)N2CCCC2C(=O)N(C)Cc2cccs2)cc1` (stereo not drawn): the cell number change was -10.7%. Moreover, the AC50 under setting [2] is 6.51 µM [rising, single point].
Take `CC(C)N(C)CCOC(=O)C1COc2ccccc2O1` (stereo not drawn): the cell number change came out at 2.87%. Moreover, the AC50 under setting [1] is 0.651 µM [rising, full curve, poor fit].
Take `CO/N=C(/CS(=O)(=O)c1ccc(C)cc1)c1ccc(OC)cc1`: the AC50 under setting [1] was 2.06 µM [rising, partial curve].
On to `COc1ccc(NC(=O)CN(C)CC(=O)NCC2CCCCC2)cc1`, for which the cell number change worked out at 25.3%.
For the compound `CN(C(=O)COC(=O)c1cc2ccccc2cc1O)C1CCCCC1`, the cell number change was -1.32%. In addition, the AC50 under setting [1] was 6.51 µM [falling, single point].
In the case of `Cc1cc(N2CCN(C)CC2)nc2ccc(NC(=S)N3CCCCC3)cc12`, the cell number change is -23.2%. Also, the half-maximal activity concentration (AC50) under setting [1] is 3.66 µM [falling, full curve, poor fit]. The AC50 under setting [2] was 4.61 µM [falling, single point].
With `Cc1cc([N+](=O)[O-])c(C)cc1-c1ccc(/C=N/NC(=O)c2cccnc2)o1`, the cell number change stood at 35%. Also, under setting [1], the AC50 is 0.0164 µM [rising, full curve, poor fit].
Regarding `COc1ccccc1CNC(=O)CSc1ccccc1`, the AC50 under setting [2] was 7.94 µM [rising, single point].
On to `CCc1ccc(C(O)(CC(C)C)C(CN2CCOCC2)c2ccccc2)cc1` (stereo not drawn), for which the cell number change was -35.5%. Besides, under setting [1], the AC50 was 29.1 µM [falling, single point]. Also, the AC50 under setting [2] is 2.06 µM [rising, partial curve].
In the case of `CCC1=NN2C(=N)/C(=C/c3c(C)nn(-c4ccccc4)c3Cl)C(=O)N=C2S1`, the cell number change is -6.32%. Under setting [2], the AC50 is 23.1 µM [rising, single point].
In the case of `O=C(NP(=O)(N1CCOCC1)N1CCOCC1)C1=C(N2CCOCC2)/C(=C\c2ccccc2)CC1`, the cell number change is -6.46%. Further, the AC50 under setting [1] is 0.146 µM [falling, full curve, poor fit]. Further, under setting [2], the AC50 was 18.4 µM [falling, partial curve].
Turning to `Clc1cccc(CN2CCN(Cc3ccco3)CC2)c1`, the cell number change stood at 9.72%.
Same read-out and setting: in the case of `CCOc1ccc2nc(NS(C)(=O)=O)sc2c1` it was -20.7%.
`COc1ccc(Cl)cc1NC(=O)c1noc(C)c1[N+](=O)[O-]`: the cell number change is -18.8%. Besides, under setting [2], the AC50 is 18.4 µM [falling, single point].
On to `COc1ccc(-c2c(-c3ccccc3)c(C(=O)C(=O)NCCCN(C)C)n3ccc4cc(OC)c(OC)cc4c23)cc1OC`, for which, under setting [1], the concentration at half-maximal activity (AC50) is 0.13 µM [falling, full curve, poor fit].
As to `Cc1c(CN2CCC(CO)(CCOc3ccccc3)CC2)[nH]c2ccc(Cl)cc12`, the cell number change was -72.6%. For the same compound, the AC50 under setting [1] is 18.4 µM [falling, single point]. Also, under setting [2], the AC50 is 25.9 µM [falling, single point].
For `C=CCNc1oc(-c2cccs2)nc1S(=O)(=O)c1ccccc1`, the cell number change turned out to be 27.4%.
Regarding `COc1cccc(-c2nc(CS(=O)CC(=O)NCCc3ccc(C)cc3)c(C)o2)c1` (stereo not drawn), the cell number change came out at 6.45%. Moreover, the AC50 under setting [2] was 0.411 µM [falling, partial curve, poor fit].
Take `O=C(CCCOc1ccc(Cl)cc1)Nc1ccc(N2CCOCC2)cc1`: the cell number change was -13.7%. Besides, the AC50 under setting [2] is 0.0651 µM [falling, full curve, poor fit].
`CN(CCCNC(=O)Cn1cc2c(n1)CCCC2)C1CCCCC1`: the cell number change was -43.5%. Moreover, the AC50 under setting [1] was 0.731 µM [falling, full curve, poor fit]. The AC50 under setting [2] was 2.06 µM [falling, full curve].
Consider `CCOc1c(O)ccc(/C=C2\SC(=S)NC2=O)c1[N+](=O)[O-]`, for which the cell number change is -18.8%.
As to `COc1ccc(NC(=O)c2cc([N+](=O)[O-])ccc2N2CCCCC2)cc1`, the cell number change was determined as 0.84%. Further, the AC50 under setting [2] is 6.51 µM [rising, single point].
For `O=c1[nH]c(/C=C\c2cccs2)nc(O)c1[N+](=O)[O-]`, the cell number change is -14.5%. The AC50 under setting [2] was 29.1 µM [falling, single point].
Consider `CC(CCc1ccccc1)NC(=O)c1cccc(F)c1` (stereo not drawn), for which the cell number change was 8.09%. Further, the AC50 under setting [2] was 0.116 µM [falling, full curve, poor fit].
